# Laboratory results taken from patent EP2608783B1, “USE OF GLYCYRRHETINIC ACID, GLYCYRRHIZIC ACID AND RELATED COMPOUNDS FOR PREVENTION AND/OR TREATMENT OF PULMONARY FIBROSIS” (Zhang, Lurong, priority 2010, dated 2012).
# For at least one compound, name, drawing or mass did not settle the structure.
# System: inflammatory mediators (IMs), including IL1a, TNFa, PF4 and VCAM-1
# Test: Inflammatory mediators in lung homogenates by ELISA, acute phase of IR-induced pneumonitis
# Format: in vivo, C57BL/6 fibrosis-prone mice
# Conditions: 2.5 days after thoracic IR at 15 Gy, compared to vehicle-treated mice, p<0.05
# Protocol: Briefly, C57BL/6 fibrosis-prone mice received a single-dose of thoracic IR at 15 Gy with a dose rate of 1.9 Gy/min. Six hours after IR exposure, the mice were divided into the following treatment groups: 1) normal (received 0 Gy; no treatment); 2) vehicle-treated; 3) GA-treated (30-40 mg/kg/ q.o.d) (i.e. every other day) (the GA dosage used herein was derived from the effective dosage for humans (3-4 mg/kg), which is typically 6-10 times lower than that of mice); 4) dexamethasone-treated (Positive Control 1) (Dex, 3 mg/kg, i.m. or p.o. qod); 5) amifostine-treated (Positive Control 2) (Ami, 200 mg/kg/ i.v, 0.5 hr prior to irradiation); and 6) celebrex-treated (Positive Control 3) (30 mg/kg, po, qod).
# The mice were sacrificed 2.5 days after IR exposure, and fresh lung tissue homogenates were prepared using lysis buffer mixed with protenase inhibitor cocktails. After protein concentration was adjusted to 1 mg/ml, the fresh lung homogenates were added to ELISA plates at a concentration of 100 µl/well. The levels of inflammatory mediators were measured by ELISA.
structure (smiles),measurement,value
C[C@@H]1C[C@H]2[C@@H]3CCC4=CC(=O)C=C[C@]4(C)[C@@]3(F)[C@@H](O)C[C@]2(C)[C@@]1(O)C(=O)CO [dexamethasone],"levels of inflammatory mediators (IMs), including IL1a, TNFa, PF4 and VCAM-1",extent of inhibition by GA was comparable
